Results deposited as PubChem BioAssay AID1159584 (Peter MacCallum Cancer Centre, 2016).
The deposit covers about 18,000 reagents; below is a random part of them. Not all columns of the deposit are shown. Reagent sequences are not shown. The record does not give: the amount of reagent, the time to read-out.

Assay: 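Genes whose loss is lethal only together with E-cadherin loss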 (primary screen)
System: human MCF10A breast epithelial cells, parental and CDH1-null
Reagent: siRNA against human genes
Read-out: 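ATP luminescence (CellTiter-Glo) viability per line relative to mean mock wells over all plates, and the ratio of CDH1-null to parental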
Direction: CDH1-null / parental viability ratio: higher = CDH1-null cells survive relatively better than parental; CDH1-null viability vs mock: higher = more viable CDH1-null cells

no.	gene	CDH1-null / parental viability ratio	CDH1-null viability vs mock (fraction of mock)
1	OSER1	1.08	0.4
2	VPS51	0.9	0.52
3	RAB11FIP1	0.94	0.62
4	DCTN4	1.03	0.72
5	CT47A7	0.94	0.6
6	ATP6V1B2	0.89	0.59
7	ELOB	0.82	0.63
8	CEMIP	1.22	1.22
9	TIAM1	0.82	0.64
10	VPS41	1.02	0.96
11	LORICRIN	1	0.85
12	PCBP1	1.05	0.92
13	MANSC1	0.89	0.89
14	SCIMP	1.15	0.6
15	OR2T12	1.47	0.5
16	CSN1S1	1.15	0.46
17	CYP39A1	0.75	0.57
18	BLNK	1.15	0.78
19	INTS13	1.13	1.02
20	SPATA31A3	1.01	0.86
21	LRRC1	0.77	0.46
22	MAP6	0.84	0.54
23	NADK	0.86	0.6
24	CPEB1	0.86	0.6
25	FBN2	1.03	0.65
26	FBXW7	1.17	0.68
27	KRTAP2-4	0.89	0.7
28	SLC25A37	0.89	0.84
29	FGF9	0.82	0.59
30	GALK1	0.88	0.75
31	OR51A2	1.12	0.76
32	CD1E	0.81	0.78
33	MDM4	0.74	0.5

Individual results from the list.
Entry for CSN1S1 under “CDH1-null / parental viability ratio”: 1.15
Under “CDH1-null viability vs mock (fraction of mock)”, CPEB1 reads 0.6
For “CDH1-null viability vs mock (fraction of mock)”, FBXW7 has 0.68
Under “CDH1-null / parental viability ratio”, ATP6V1B2 is entered as 0.89

Additional records follow:
no.	gene	CDH1-null / parental viability ratio	CDH1-null viability vs mock (fraction of mock)
34	ADRA2B	1.28	0.82
35	TCL1A	1.02	0.59
36	FERMT3	0.77	0.44
37	CROCC	1.12	0.56
38	ADI1	1.15	0.92
39	BEGAIN	0.92	0.97
40	ARHGEF9	1.09	1
41	C20orf204	0.9	0.47
42	KRTAP1-3	0.71	0.54
43	NKX2-5	0.91	0.89
44	TLK2	0.6	0.48
45	EIF4G1	0.97	0.62
46	CMTR1	1.31	0.97
47	COL4A4	1.01	0.86
48	SDS	0.99	0.9
49	C1orf52	0.98	0.84
50	TNFSF10	1.06	1.06
51	TIPIN	1	0.44
52	SCYL2	1.11	1
53	LSM4	1.73	0.64
54	IL36R	0.94	1.01
55	GDF6	1.26	0.96
56	ANKRD13A	0.99	0.81
57	STRA6	1.02	0.92
58	VAMP2	1.2	0.97
59	SLC18A3	0.89	0.89
60	DNAJC30	1	0.8
61	VIP	0.82	0.82
62	PGLYRP2	0.91	0.82
63	CATSPER3	1.22	0.88
64	ZMAT2	0.9	0.45
65	SMC6	1	1
66	TLR6	0.87	0.71
67	GAS6	1.22	0.61
68	CCNB2	0.68	0.54
